# In all, about 360,000 compounds went through this assay and about 10,000 (2.8%) were called active. Inconclusive means that the source gave no clear call. Such entries were picked first, then a sample of the others. The call rests on the fitted dose curve; in most records, active means well fitted inhibition curve with a large enough effect; inconclusive means small, poorly fitted or top-dose-only effect; inactive means flat fitted curve, though single readings scatter. Where the call is inconclusive, the potency comes from a doubtful curve fit.
# Sequences of proteins named here, by UniProt entry; tags and fusion partners are left off.
# UniProt P53350, whole entry, looked up: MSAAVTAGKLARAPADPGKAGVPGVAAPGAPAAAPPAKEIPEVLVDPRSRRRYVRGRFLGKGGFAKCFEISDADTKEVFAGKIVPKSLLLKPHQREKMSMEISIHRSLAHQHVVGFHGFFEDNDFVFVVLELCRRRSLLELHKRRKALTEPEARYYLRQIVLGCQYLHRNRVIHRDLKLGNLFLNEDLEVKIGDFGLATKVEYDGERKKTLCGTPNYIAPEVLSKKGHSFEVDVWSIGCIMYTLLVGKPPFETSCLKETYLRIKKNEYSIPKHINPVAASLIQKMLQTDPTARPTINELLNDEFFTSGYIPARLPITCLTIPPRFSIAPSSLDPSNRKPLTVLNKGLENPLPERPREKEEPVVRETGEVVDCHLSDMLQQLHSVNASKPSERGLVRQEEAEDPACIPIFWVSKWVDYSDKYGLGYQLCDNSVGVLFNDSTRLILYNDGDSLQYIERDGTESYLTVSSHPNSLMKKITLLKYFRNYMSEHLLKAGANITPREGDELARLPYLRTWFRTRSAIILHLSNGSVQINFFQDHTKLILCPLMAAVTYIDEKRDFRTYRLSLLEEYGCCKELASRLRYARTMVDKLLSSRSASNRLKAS
# Biological target: Serine/threonine-protein kinase PLK1 (Homo sapiens) (UniProt P53350)
# Test: qHTS for Inhibitors of PLK1-PDB (polo-like kinase 1 - polo-box domain): Primary Screen; further: nearly all actives have a fitted effect of over 65% in size; on max response, negative = inhibition: series mostly up to about 57 µM
# Conditions: Plk1 PBD binding of FITC phosphopeptide, fluorescence polarization
# On the % scale 0 is the no-effect control and ±100 the full control effect; potency means the concentration at half of the fitted maximal effect.
SMILES,"max response, negative = inhibition",Potency
COP(=O)(OC)OC(C(=O)c1ccccc1)c1ccccc1 (stereo not drawn),inactive: 3.67%,
CCC(C)c1ccc(-n2c(=O)c3ccccc3n3c(=S)[nH]nc23)cc1 (stereo not drawn),,active: 21.2 µM
COc1ccc(C2CC(C(F)(F)F)n3nc(C(=O)O)cc3N2)cc1 (stereo not drawn),,"inconclusive: 29.9 µM [inhibitor, partial curve]"
Cc1cc(Cl)ccc1OC(C)C(=O)Nc1ccc(C(=O)Nc2ccccc2C(=O)O)cc1 (stereo not drawn),,"inconclusive: 33.6 µM [inhibitor, partial curve]"
COc1ccc(-c2cc(C(=O)N3CCCCCC3)c3ccccc3n2)c(OC)c1,,"inconclusive: 21.2 µM [inhibitor, partial curve]"
CCn1c(O)c(C#N)c(C)cc1=O,inactive: -6.1%,
CCOc1cc(NC(=S)NCC2CCCO2)c(OCC)cc1NC(=O)C1CC1 (stereo not drawn),,"inconclusive: 29.9 µM [inhibitor, partial curve]"
CN1C(=O)C(O)(CC(=O)c2cccc(-n3cccc3)c2)c2ccccc21 (stereo not drawn),,"inconclusive: 26.7 µM [inhibitor, partial curve]"
COc1cc(NC(=O)COC(=O)CNC(=O)c2ccc(C)s2)cc(OC)c1,,active: 23.8 µM
Nc1c(-c2ccc3c(c2)OCCO3)oc2ccccc2c1=O,,"inconclusive: 29.9 µM [inhibitor, partial curve, poor fit]"
O=c1[nH]n2c(=O)c3c([nH]c2c1N=Nc1cccc(C(F)(F)F)c1)CCCC3,,"inconclusive: 29.9 µM [inhibitor, partial curve]"
O=C(Oc1oc(-c2ccco2)nc1C=Nc1ccccc1)c1ccco1,,active: 2.99 µM
CN(CCCNC(=O)c1ccccc1F)CCCNC(=O)c1ccccc1F,inactive: -4.44%,
COc1cc(/C=N/NC(=O)c2cccc3ccccc23)cc(OC)c1OC,,active: 29.9 µM
CCN(CC)C(=O)c1c(NC(=O)c2ccccc2)sc(C)c1C,inactive: -2.25%,
CC(=O)Oc1ccc2nc(-c3ccco3)oc(=O)c2c1,,active: 26.7 µM
Cc1nn(-c2ccccc2)c2[nH]c(=O)c(CNc3ccc4c(c3)OCCO4)cc12,inactive: -13.8%,
COCCNC(=O)C1(C)CCCN(Cc2ccc(C)c3ccccc23)C1 (stereo not drawn),inactive: -12.4%,
COc1ccccc1N=Cc1nc(-c2ccccc2)oc1OC(C)=O,,"inconclusive: 23.8 µM [inhibitor, partial curve]"
Cc1cc(N)c(C)c([N+](=O)[O-])c1C,,"inconclusive: 2.38 µM [inhibitor, full curve, poor fit]"
O=C(Nc1ccccc1-c1nc2ccccc2s1)c1cccnc1,,"inconclusive: 29.9 µM [inhibitor, partial curve]"
CN1CCN(S(=O)(=O)c2ccc(-c3noc(C4CCN(S(C)(=O)=O)CC4)n3)cc2)CC1,inactive: -1.63%,
CCCOc1ccc(/C=C2/C(=O)ON=C2C)cc1Cl,,active: 1.06 µM
COc1ccc2c3c(cccc13)C(=O)CC2,,active: 9.47 µM
CCN1CCc2c(OCC(=O)N3N=C(c4cccs4)CC3c3ccc(F)cc3)cccc2C1=O (stereo not drawn),inactive: -0.106%,

SMILES,"max response, negative = inhibition",Potency
Cc1ccc(NC(=O)N2CCCC2)cc1Cl,,"inconclusive: 6.7 µM [inhibitor, partial curve]"
CCC(CC)c1nnc(NC(=O)CCc2ccccc2)s1,inactive: -13.8%,
CCOC(=O)CNC(=O)C(NC(=O)C1CCC(C)CC1)C(C)CC (stereo not drawn),,"inconclusive: 23.8 µM [inhibitor, partial curve]"
O=[N+]([O-])c1cc(-c2ccc(/C=N\n3cnnc3)o2)cc([N+](=O)[O-])c1,inactive: -15.2%,
Cc1c([N+](=O)[O-])cnc(Sc2ccccc2)c1[N+](=O)[O-],,"inconclusive: 16.8 µM [inhibitor, partial curve]"
CC(C)OC(=O)c1ccc(NCc2cc(O)ccc2O)cc1,,"inconclusive: 37.7 µM [inhibitor, single point]"
CCc1ccccc1S(=O)(=O)Cc1ccc(C(=O)N2CCN(c3ccccc3OC)CC2)o1,inconclusive: -30.5% [inhibitor],
S=c1[nH]nc2c3c4c(sc3ncn12)CCCC4,,"inconclusive: 33.6 µM [inhibitor, single point]"
O=c1[nH]cc(N=Cc2cc(Cl)cc(Cl)c2O)c(=O)[nH]1,,"inconclusive: 26.7 µM [inhibitor, single point]"
CCSc1n[nH]c2nc3c(c(=O)n12)C1(CCCC1)Cc1ccccc1-3,,active: 21.2 µM
Cc1ccnc(NS(=O)(=O)c2ccc(NC(=O)c3ccc([N+](=O)[O-])s3)cc2)n1,,"inconclusive: 33.6 µM [inhibitor, single point]"
Clc1ccc(-c2ccc(-c3nn4c(-c5ccco5)nnc4s3)o2)cc1,,"inconclusive: 29.9 µM [inhibitor, partial curve]"
COc1cccc(C(=O)Nc2ccc(N(C)C)cc2)c1OC,inactive: -20.2%,
Cc1[nH]c(=S)sc1Cc1ccc(F)cc1,,"inconclusive: 18.9 µM [inhibitor, partial curve, poor fit]"
Cc1cccc(-n2nc3c(c2NC(=O)c2ccco2)CSC3)c1C,,"inconclusive: 29.9 µM [inhibitor, partial curve]"
O=C(CCS(=O)(=O)c1ccccc1)Nc1ccccc1F,,"inconclusive: 29.9 µM [inhibitor, partial curve]"
COc1cccc(NC(=S)N2CCC(C(=O)c3ccc(F)cc3)CC2)c1,,"inconclusive: 26.7 µM [inhibitor, partial curve]"
O=C(Nc1ccc(S(=O)(=O)Nc2ccccn2)cc1)c1ccccc1,inactive: -2.45%,
CN(CCOc1ccccc1)CCOc1ccccc1,inactive: -14.4%,
CN1CCN(C(=O)CCNC(=O)Cn2cnc3ccccc3c2=O)CC1,inactive: -12.7%,
CCOc1ccc(CCNC(=O)c2ccc3c(=O)[nH]c4c(C(=O)NC(C)C)sc(=S)n4c3c2)cc1,,"inconclusive: 26.7 µM [inhibitor, single point]"
COc1ccc(N=Cc2[nH]c3ccccc3c2O)cc1,,"inconclusive: 29.9 µM [inhibitor, single point]"
O=C(CN(Cc1cccs1)C(=O)CCC(=O)Nc1ccccn1)NCc1ccccc1,,"inconclusive: 26.7 µM [inhibitor, single point]"
Cc1ccc(CN(Cc2ccccc2)C(=S)NCC(=O)NCc2cccnc2)o1,,"inconclusive: 26.7 µM [inhibitor, single point]"
O=C(OCC(=O)N1CCN(C(=O)c2ccco2)CC1)c1cccc(S(=O)(=O)N2CCc3ccccc32)c1,,"inconclusive: 23.8 µM [inhibitor, partial curve]"

# Pulled by compound from the list above, three records:
SMILES,"max response, negative = inhibition",Potency
COc1cccc(C(=O)Nc2ccc(N(C)C)cc2)c1OC,inactive: -20.2%,
CC(C)OC(=O)c1ccc(NCc2cc(O)ccc2O)cc1,,"inconclusive: 37.7 µM [inhibitor, single point]"
Cc1ccnc(NS(=O)(=O)c2ccc(NC(=O)c3ccc([N+](=O)[O-])s3)cc2)n1,,"inconclusive: 33.6 µM [inhibitor, single point]"

# Carrying on.

SMILES,"max response, negative = inhibition",Potency
Cn1c(=O)[nH]c(=O)c2c1nc(Br)n2CCCCSc1nc2ccccc2o1,,"inconclusive: 23.8 µM [inhibitor, partial curve]"
Cc1cnc(C(=O)Nc2cccc3ncccc23)cn1,inactive: -3.38%,
CCOC(=O)c1cn(Cc2ccccc2)c(C(=O)OC(C)(C)C)c1O,inconclusive: -34.4% [inhibitor],
CCCCn1c(NC(=O)c2ccccc2Cl)c(C#N)c2nc3ccccc3nc21,,active: 26.7 µM
O=C(COc1ccc([N+](=O)[O-])cc1)Nc1ccc2c(c1)nc1n2CCOC1,,active: 2.99 µM
O=C(CN1CCOCC1)Nc1ccc2c(c1)CCC2,,active: 26.7 µM
CCS(=O)(=O)N1CCC(c2nc(-c3ccc(C)cc3)no2)CC1,inactive: -3.49%,
CN(c1ccccc1)S(=O)(=O)c1ccc(C(=O)N2CCN(c3ccccc3)CC2)cc1,inactive: -8.51%,
Cc1ccnc(NS(=O)(=O)c2ccc(N3C(=O)c4c(Cl)c(Cl)c(Cl)c(Cl)c4C3=O)cc2)n1,,"inconclusive: 26.7 µM [inhibitor, partial curve]"
COc1cc(CN2CCc3ccc(NC(=O)CCc4ccccc4OC)cc3C2)ccc1O,inactive: -9.66%,
Cn1c(Cn2c(=O)sc3ccccc32)nnc1SCC(=O)NC1CCCC1,,active: 23.8 µM
COCCCn1c(=O)c2sccc2n2c(CCCC(=O)NCc3ccccc3)nnc12,,"inconclusive: 23.8 µM [inhibitor, single point]"
COc1ccccc1CN(Cc1nc2ccccc2c(=O)[nH]1)C(=O)Nc1ccccc1,inactive: 4.08%,
CCCNC(=O)C12CCC(C)(c3nc4cc(C)c(C)cc4nc31)C2(C)C (stereo not drawn),inactive: 2.85%,
c1coc(-c2nnc3sc(Cc4cccs4)nn23)c1,,active: 26.7 µM
COc1ccc(C(=O)Nc2c(O)ccc3ccccc23)cc1OC,,"inconclusive: 21.2 µM [inhibitor, partial curve]"
COc1ccc(C(C2C(=O)CC(C)(C)CC2=O)C2C(=O)CC(C)(C)CC2=O)cc1COCC(F)(F)F,,active: 6.7 µM
O=C1C(=O)N(Cc2ccccc2)C(=O)N1CCOc1ccccc1,inactive: -28.2%,
COC(=O)c1c(-c2ccc(C)cc2)csc1NC(=O)C1CC=CCC1C(=O)O (stereo not drawn),inconclusive: -33% [inhibitor],
CCc1ccc(CNC(=O)Cn2nc(-c3ccccc3)ccc2=O)cc1,,"inconclusive: 2.38 µM [inhibitor, partial curve]"
CCCCCCCCN1C(=O)[C@H](CC(=O)NCc2ccccc2)C[C@@]2(C(=O)OCC)CCCC=C12,inactive: 6.05%,
CCOc1ncccc1C(=O)Nc1cc(S(=O)(=O)N2CCCCC2)ccc1Cl,inactive: -1.4%,
Cc1ccc(NC(=O)c2ccc3nc(N4CCOCC4)sc3c2)c(Cl)c1,,"inconclusive: 26.7 µM [inhibitor, partial curve]"
